# Test results taken from PubChem BioAssay AID1259415 (National Center for Advancing Translational Sciences (NCATS), 2018).
# The campaign covered roughly 410,000 compounds. About 18,000 (4.4%) were called active. This list was built around the results that the source calls inconclusive (neither active nor inactive); the mix of calls is not that of the screen. No stated cut-off is given here; in the data, active means activity change below about -60%; inconclusive means no clear call, values can overlap the other calls; inactive means above about -39%.
# Assay: qHTS Assay for inhibitors of the human cytomegalovirus (HCMV)
# Settings: HFF cells, HCMV-luciferase reporter, 72 h; at 57.5 µM; active compounds read low
# Summary of the method: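 Two compound doses tested in HFFs infected with HCMV-luciferase, MOI 1 PFU/cell, 72 h at 37C. Lysate luminescence read with OneGlo; data normalized against buffer-only and 10uM Salinomycin inhibitor controls.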
# On the % scale 0 is the no-effect control and ±100 the full control effect.
row,SMILES,"activity change, negative = inhibition"
1,Cc1ccc(S(=O)(=O)NCCCNC(=O)OCc2ccccc2)cc1,inconclusive: -47.5%
2,O=C(CCSCc1cccc(Cl)c1)NCc1ccccc1Cl,inactive: -9.16%
3,O=C(COc1ccccc1Cl)Nc1cccc(S(=O)(=O)N2CCCC2)c1,inconclusive: -44.2%
4,CC(=O)N1c2ccc(Cl)cc2C2OCCC2C1c1ccco1 (configuration not stated),active: -66.1%
5,CCN(CC)c1cc(C)c2cc(NC(=O)/C=C/c3ccccc3Cl)ccc2n1,active: -107%
6,O=C(NCc1ccccn1)c1ccc2c(c1)N(Cc1ccccc1)CCS2,inconclusive: -57.6%
7,CN1OC[C@@H]2CN(Cc3cc(Cl)cc(Cl)c3)[C@H](c3cccc(Br)c3)C[C@@H]21,inactive: -13.9%
8,C=CCc1c(C)[nH]c2c(OC)cccc2c1=S,inconclusive: -48.8%
9,CN(C)C(=O)CCC(=O)N1CCCC(C(=O)c2ccc(C(F)(F)F)cc2)C1 (configuration not stated),inconclusive: -40.3%
10,Cc1cc(C)cc(NC(=O)N2CCC(C(N)=O)(N3CCCCC3)CC2)c1,inactive: -7.49%
11,Cc1nn(-c2ccccc2)c(C)c1/C=N/NC(=O)c1cc(C2CC2)[nH]n1,inactive: 9.96%
12,COc1ccc(CNc2nc(-c3cccnc3)nn2C(C)=O)cc1,inconclusive: -44.9%
13,COc1cccc(CNC(=O)c2cccc(Br)c2)c1,inactive: -27.3%
14,Cc1nc(SCC(=O)Nc2ccccc2Cl)c2c(C)c(C)sc2n1,inconclusive: -46.9%
15,CC(=O)OCC1(C)CN(c2ccccc2)NC1=O (configuration not stated),active: -62.1%
16,O=C(NNC(=O)C1C2C=CC(C2)C1C(=O)O)c1cc(Cl)ccc1O (configuration not stated),inconclusive: -53.1%
17,Fc1cccc(-c2cc3c(Nc4ccc5c(c4)OCCO5)nccc3[nH]2)c1,inconclusive: -40%
18,Cc1nc2sc(C(N)=O)c(N)c2c(C)c1CC(=O)c1ccccc1,inconclusive: -58.5%
19,Cc1ccc(S(=O)(=O)N2CCCCC2)cc1NC(=O)CSc1nncn1-c1ccccc1,inconclusive: -48.1%
20,O=c1[nH]c(O)c(C=Nc2ccc(F)c(Cl)c2)c(=O)[nH]1,inconclusive: -42.8%
21,O=C(O)CCN1C(=O)/C(=C\c2cccc(Oc3ccccc3)c2)SC1=S,inconclusive: -46.8%
22,OC[C@@H]1CN(Cc2cccs2)C[C@H](n2cnc3c(NC4CCC4)ncnc32)O1,inactive: 4.58%

row,SMILES,"activity change, negative = inhibition"
1,CCOC(=O)C1CCN(C(=O)c2ccc3c(c2)NC(=O)/C(=C/c2ccccc2)S3)CC1,inconclusive: -46.1%
2,Cc1ccc(SCCC(=O)NCc2ccco2)cc1,inactive: 34.6%
3,Cc1ccc(OCc2ccc(Br)cc2)c([N+](=O)[O-])n1,inactive: -8.91%
4,O=C(c1ccc2c(c1)OCCO2)N1CCN(c2ccc(C(F)(F)F)cn2)CC1,active: -60.4%
5,COc1ccccc1NC(=O)CN1CCN(CC(=O)Nc2ccccc2Cl)CC1,inconclusive: -51.2%
6,Cc1ccccc1OCC(=O)N/N=C1\CC(=O)CC(C)(C)C1,inconclusive: -52.6%
7,Cc1cccnc1NC(=O)c1ccc([N+](=O)[O-])o1,active: -76%
8,Cc1[nH]n(C2=NCCS2)c(=O)c1N=Nc1ccccc1,active: -61.4%
9,C=CCN(c1ccccc1)S(=O)(=O)c1cccc(C(=O)NCC(c2ccccc2OC)N2CCCC2)c1 (configuration not stated),inactive: -2.87%
10,COc1cc2c(cc1OC)C(C)N(C(=O)c1c(C)noc1C)CC2 (configuration not stated),inconclusive: -42.9%
11,COc1cc(OC)cc(C(=O)NCC(=O)NC(C)CCc2ccccc2)c1 (configuration not stated),inconclusive: -53.7%
12,Cc1ccc2c(C)c(C(=O)N(Cc3ccc(F)cc3)C3CCS(=O)(=O)C3)oc2c1 (configuration not stated),inconclusive: -46.7%
13,O=C(NC(=S)Nc1ccc(Cl)cc1)c1cncc(Br)c1,inconclusive: -59.2%
14,COc1ccc(S(=O)(=O)c2c(O)c(C)cc(NS(=O)(=O)c3ccc(Cl)cc3)c2C(C)C)cc1,inconclusive: -48.5%
15,Cc1ccc(S(=O)(=O)N2CCOCC2)cc1NC(=O)CN1CCC(Cc2ccccc2)CC1,inactive: -32.9%
16,Cc1ccc(S(=O)(=O)N2CCc3cc(C(=O)N(C)Cc4ccccc4)ccc32)cc1,inconclusive: -56.4%
17,COc1cc(OC)cc(C(=O)NCC(=O)N2CCC(C)CC2)c1,inconclusive: -45.2%
18,CCOC(=O)N1CCN(c2nnc(-c3ccc(C)cc3)c3ccccc23)CC1,inconclusive: -52%
19,CN(C(=O)c1c(Cl)nc2sccn12)C1CCCCC1,inactive: 5.9%
20,COc1ccc(-c2nc3c4ccccc4n(CC(=O)Nc4ccc(C(C)C)cc4)c(=O)n3n2)cc1,inactive: 14%
21,CC1(c2ccccc2)NC(=O)N(CC(=O)NCCC2=CCCCC2)C1=O (configuration not stated),active: -69.3%
22,Cc1ccccc1OCC(O)Cn1c(=N)n(Cc2ccccc2)c2ccccc21 (configuration not stated),active: -74.1%

row,SMILES,"activity change, negative = inhibition"
1,CCN1C(=O)[C@H]2[C@@H](c3ccc(-c4ccc(F)cc4)cc3)N[C@@](Cc3ccccc3)(C(=O)OC)[C@H]2C1=O,inconclusive: -50.9%
2,Cc1nn(-c2nc3ccccc3[nH]2)c(=O)c2ccccc12,active: -90.5%
3,O=C(NCCc1csc(-c2ccccc2)n1)c1ccccc1F,inconclusive: -43.2%
4,CCOc1ccc(Oc2ccc(NS(=O)(=O)c3cc(C(=O)O)ccc3Cl)cc2)cc1,inconclusive: -50.3%
5,CCC(C(=O)Nc1ccccc1-c1ccccc1)c1ccccc1 (configuration not stated),inconclusive: -44.9%
6,CC(=O)Nc1nc(-c2ccc([N+](=O)[O-])cc2)cs1,active: -84.8%
7,Cn1nc(C(F)(F)F)c(-c2cccc(C(F)(F)F)c2)c1NC(=O)c1ccco1,active: -70.8%
8,COc1ccccc1/C=C/C=N/n1c(-c2cc(C)[nH]n2)n[nH]c1=S,inconclusive: -40.1%
9,COc1ccccc1/C=N/OCc1ccc(C#N)cc1,inactive: 0.968%
10,O=C(Nc1c2c(nn1-c1ccccc1)CS(=O)(=O)C2)c1ccc(Br)o1,inconclusive: -56.8%
11,COc1cccc(NC(=O)CN(C)CC(=O)Nc2ccc(C)c([N+](=O)[O-])c2)c1,inconclusive: -51.6%
12,NC(=O)C1=CC2C3C=CC2(O)C(=O)OC3O1 (configuration not stated),active: -96.8%
13,O=C(CCn1cccn1)N1CCCC(N2CCN(c3cccc(C(F)(F)F)c3)CC2)C1 (configuration not stated),active: -61.9%
14,Fc1ccc(NC(=S)NCCc2ccccc2)c(F)c1F,active: -74.3%
15,CC1(C)CC2CC(C)(CN2C(=O)c2ccccc2)C1 (configuration not stated),inconclusive: -51.1%
16,COc1ccc(CCNc2ccc(C(CC(N)=O)NC(=O)Cc3ccc(Br)cc3)cc2[N+](=O)[O-])cc1 (configuration not stated),inactive: 2.69%
17,CN(C)c1oc(/C=C/c2cccs2)nc1S(=O)(=O)c1ccccc1,inconclusive: -46.4%
18,COc1cc2nc(SCc3ccc(Cl)cc3Cl)n(Cc3cccs3)c(=N)c2cc1OC,inconclusive: -46.3%
19,CN(CC(=O)Nc1ccc(Cl)c(C(F)(F)F)c1)C(=O)Cc1n[nH]c(=O)c2ccccc12,active: -73.5%
20,Cc1ccc(-c2ccc(/C=C3\C(=O)ON=C3c3ccccc3)o2)c([N+](=O)[O-])c1,active: -94.5%
21,C(=C\c1ccco1)/c1nc2ccccc2[nH]1,inconclusive: -41.5%
22,N#Cc1c(NC(=O)CSC2=NCCS2)sc2c1CCCC2,inconclusive: -58%

row,SMILES,"activity change, negative = inhibition"
1,Cc1ccc(NC(=O)c2nc[nH]c2C(=O)N2CCc3ccccc3C2)cc1,active: -74.5%
2,CC(=O)c1cccc(NC(=S)NC(=O)c2ccccc2Cl)c1,inactive: -39.1%
3,COCCNC(=O)C(c1ccc(O)cc1)N(Cc1ccco1)C(=O)CCC(=O)Nc1ccccn1 (configuration not stated),inactive: 6.66%
4,Clc1ccc(OCCCCCN2CCCC2)c(Br)c1,inconclusive: -58.3%
5,COc1cc(NC(=O)CCC2CCCC2)cc(-n2cnnn2)c1,inconclusive: -40.4%
6,c1ccc2sc(N3CCOCC3)nc2c1,inactive: 22.7%
7,COCCCNC(=O)c1ccc(Cn2c(=O)c3ccccc3n(Cc3c(C)cc(C)cc3C)c2=O)cc1,inactive: -3.1%
8,COc1ccc(-c2nc3n(n2)C(c2ccc(OC)c(OC)c2)C(C(=O)Nc2cccnc2)=C(C)N3)cc1 (configuration not stated),inconclusive: -40.4%
9,COc1ccc(S(=O)(=O)c2nnn(-c3ccccc3Cl)c2N)cc1,inconclusive: -55.4%
10,Nc1c(C(=O)Nc2ccccc2F)sc2nc(-c3cccnc3)ccc12,inconclusive: -49.1%
11,CCCCNC(=O)C1C(c2ccc(OC)cc2)=Nc2ccccc2N1C(=O)c1ccc2ncccc2c1 (configuration not stated),inconclusive: -57.1%
12,COc1ccc(NC(=O)/C=C/c2ccc(Br)o2)cn1,inconclusive: -50.7%
13,O=C(NCCCN1CCCC1=O)c1ccc(S(=O)(=O)Nc2cccc(C(F)(F)F)c2)cc1,inconclusive: -40.4%
14,O=C(NCc1ccc(F)cc1)c1cc2c(s1)CS(=O)(=O)C2,inactive: -14.7%
15,Cc1ccc(Cl)cc1NC(=O)CCCn1c(=O)c2cccn2c2cccnc21,inconclusive: -43.7%
16,CC1CCCCN1CCCNC(=O)CN1C(=O)c2cccnc2Oc2ccccc21 (configuration not stated),inconclusive: -45.5%
17,CN(C)C(CNC(=O)CCc1nc2cc(Cl)ccc2n(Cc2ccccc2)c1=O)c1ccccc1 (configuration not stated),inconclusive: -41%
18,O=C(CSCc1ccccc1)N/N=C/c1cc2c(cc1Br)OCO2,active: -72.9%
19,O=C(Nc1nc2c(s1)CCCC2)c1cccc(S(=O)(=O)N2CCCc3ccccc32)c1,inconclusive: -53.7%
20,Cc1nc(SCCOc2ccccc2F)[nH]c(=O)c1Cc1ccccc1,inconclusive: -42.4%
21,CC1CC(=O)C2=C(C1)Nc1ccccc1N=C2 (configuration not stated),inconclusive: -59.4%

# Individual results from the results shown:
# Value of O=C(NCc1ccc(F)cc1)c1cc2c(s1)CS(=O)(=O)C2 under activity change, negative = inhibition: inactive: -14.7%
# Value of Cc1ccc(NC(=O)c2nc[nH]c2C(=O)N2CCc3ccccc3C2)cc1 under activity change, negative = inhibition: active: -74.5%
# Value of CCCCNC(=O)C1C(c2ccc(OC)cc2)=Nc2ccccc2N1C(=O)c1ccc2ncccc2c1 (configuration not stated) under activity change, negative = inhibition: inconclusive: -57.1%
